From publication doi:10.1101/2023.05.11.540316 come the findings set out here.

Chains of the proteins cited; added tags and fusions are not shown.
UniProt P61765: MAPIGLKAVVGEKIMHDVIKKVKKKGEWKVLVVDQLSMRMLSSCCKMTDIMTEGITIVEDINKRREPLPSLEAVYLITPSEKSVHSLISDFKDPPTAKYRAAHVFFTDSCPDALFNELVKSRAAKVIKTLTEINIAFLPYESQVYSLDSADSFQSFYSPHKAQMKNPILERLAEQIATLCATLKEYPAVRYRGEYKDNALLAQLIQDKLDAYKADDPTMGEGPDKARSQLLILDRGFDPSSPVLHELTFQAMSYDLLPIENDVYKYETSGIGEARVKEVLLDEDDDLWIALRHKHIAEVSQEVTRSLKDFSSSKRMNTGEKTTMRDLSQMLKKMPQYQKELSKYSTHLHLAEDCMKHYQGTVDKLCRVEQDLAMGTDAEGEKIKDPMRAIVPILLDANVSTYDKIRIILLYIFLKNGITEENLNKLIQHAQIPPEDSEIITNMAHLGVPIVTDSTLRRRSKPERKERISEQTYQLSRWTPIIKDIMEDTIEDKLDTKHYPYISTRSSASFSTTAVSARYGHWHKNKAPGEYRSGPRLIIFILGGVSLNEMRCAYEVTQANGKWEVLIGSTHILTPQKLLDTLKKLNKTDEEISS

Results are given in words; binding and its absence hold for the method and conditions named. For some of these results: In cells and extracts the contact can be indirect. Some entries that bind do so weakly or less than the wild type. For some of these results: Sequences can lack the tags named with a protein.

The target in one assay is STXBP1-emGFP (UniProt P61765). Description: co-IP.
The target in assay [1] is GFP-tagged STXBP1^WT (ALPHAScreen) (UniProt P61765). As to the kind of experiment: AlphaScreen or HTRF. For orientation: In Alpha technology, singlet oxygen from a donor bead excites a nearby acceptor bead.

B1: DDHD2, endogenous in PC12 cells (enzyme, UniProt D3ZJ91 1-699)
chain: MSSGESYQEQLSQSDPSPSPNSSSSFELLDMDVGSSYEPVSPHWFYCKVIDSKELWIPFNSEDSQQLEEAHGSGKDCNERVVPTDGGRYDVHLGERMRYAVYWDELPSEVRRCTWFYKGDKDNKYVPYSESFSQVLEDTYMLAVTLDEWKKKLESPNREIIVLHNPKLMVHYQPITGSDEWGSTSTEQGRPRSVKRGVESIPVDIHCGEPLQIDHLVFVVHGIGPACDLRFRSIVQCVNDFRSVSLNLLQTHFKKAQENQQIGRVEFLPVNWHSPLHSTGVDIDLQRITLPSINRLRHFTNDTILDVFFYNSPTYCQTIVDTVASEMNRIYTLFLQRNPDFKGGVSIAGHSLGSLILFDILTNQKDSIGDIDSEKGSLSTAEDLGDVSTLEEELKKLQLSEFVTVFEKEKVDREALALCTDRDLQEMGIPLGPRKKILNHFSATKSSVGINRPTMSASEVNIPKEKGDYLDVGIGQVSVKYPRLNYKPEIFFAFGSPIGMFLTVRGLRRIDPNYKFPTCKGFFNIYHPFDPVAYRIEPMVVPGVEFEPMLIPHHKGRKRMHLELREGLTRMSMDLKNNLLGSLRMAWKSFTRAPYPALQASEMAEDTEAESEPSSEKPSDANTEEPPVEVKEEAPINVGMLNGGQRIDYVLQEKPIESFNEYLFALQSHLCYWESEDTVLLVLKEIYQTQGIFLDQPLQ
On to B1, for which, in the assay with STXBP1-emGFP, the binding entry is “binds”.

B2: myc-tagged PNPLA1 (ALPHAScreen) (enzyme, UniProt Q8N8W4 1-532)
chain: MEEQVFKGDPDTPHSISFSGSGFLSFYQAGAVDALRDLAPRMLETAHRFAGTSAGAVIAALAICGIEMDEYLRVLNVGVAEVKKSFLGPLSPSCKMVQMMRQFLYRVLPEDSYKVTTGKLHVSLTRLTDGENVVVSEFTSKEELIEALYCSCFVPVYCGLIPPTYRGVRYIDGGFTGMQPCAFWTDAITISTFSGQQDICPRDCPAIFHDFRMFNCSFQFSLENIARMTHALFPPDLVILHDYYYRGYEDAVLYLRRLNAVYLNSSSKRVIFPRVEVYCQIELALGNECPERSQPSLRARQASLEGATQPHKEWVPKGDGRGSHGPPVSQPVQTLEFTCESPVSAPVSPLEQPPAQPLASSTPLSLSGMPPVSFPAVHKPPSSTPGSSLPTPPPGLSPLSPQQQVQPSGSPARSLHSQAPTSPRPSLGPSTVGAPQTLPRSSLSAFPAQPPVEELGQEQPQAVALLVSSKPKSAVPLVHVKETVSKPYVTESPAEDSNWVNKVFKKNKQKTSGTRKGFPRHSGSKKPSSKVQ
On to B2, for which the binding entry in assay [1] is given as “binds”.

B3: myc-tagged DDHD2 (ALPHAScreen) (enzyme, UniProt O94830 1-711)
chain: MSSVQSQQEQLSQSDPSPSPNSCSSFELIDMDAGSLYEPVSPHWFYCKIIDSKETWIPFNSEDSQQLEEAYSSGKGCNGRVVPTDGGRYDVHLGERMRYAVYWDELASEVRRCTWFYKGDKDNKYVPYSESFSQVLEETYMLAVTLDEWKKKLESPNREIIILHNPKLMVHYQPVAGSDDWGSTPTEQGRPRTVKRGVENISVDIHCGEPLQIDHLVFVVHGIGPACDLRFRSIVQCVNDFRSVSLNLLQTHFKKAQENQQIGRVEFLPVNWHSPLHSTGVDVDLQRITLPSINRLRHFTNDTILDVFFYNSPTYCQTIVDTVASEMNRIYTLFLQRNPDFKGGVSIAGHSLGSLILFDILTNQKDSLGDIDSEKDSLNIVMDQGDTPTLEEDLKKLQLSEFFDIFEKEKVDKEALALCTDRDLQEIGIPLGPRKKILNYFSTRKNSMGIKRPAPQPASGANIPKESEFCSSSNTRNGDYLDVGIGQVSVKYPRLIYKPEIFFAFGSPIGMFLTVRGLKRIDPNYRFPTCKGFFNIYHPFDPVAYRIEPMVVPGVEFEPMLIPHHKGRKRMHLELREGLTRMSMDLKNNLLGSLRMAWKSFTRAPYPALQASETPEETEAEPESTSEKPSDVNTEETSVAVKEEVLPINVGMLNGGQRIDYVLQEKPIESFNEYLFALQSHLCYWESEDTVLLVLKEIYQTQGIFLDQPLQ
As to B3, in assay [1], the binding result is reported as “binds”.

B4: myc-tagged PAPLA1 (ALPHAScreen) (enzyme, UniProt Q8NEL9 1-900)
chain: MNYPGRGSPRSPEHNGRGGGGGAWELGSDARPAFGGGVCCFEHLPGGDPDDGDVPLALLRGEPGLHLAPGTDDHNHHLALDPCLSDENYDFSSAESGSSLRYYSEGESGGGGSSLSLHPPQQPPLVPTNSGGGGATGGSPGERKRTRLGGPAARHRYEVVTELGPEEVRWFYKEDKKTWKPFIGYDSLRIELAFRTLLQTTGARPQGGDRDGDHVCSPTGPASSSGEDDDEDRACGFCQSTTGHEPEMVELVNIEPVCVRGGLYEVDVTQGECYPVYWNQADKIPVMRGQWFIDGTWQPLEEEESNLIEQEHLNCFRGQQMQENFDIEVSKSIDGKDAVHSFKLSRNHVDWHSVDEVYLYSDATTSKIARTVTQKLGFSKASSSGTRLHRGYVEEATLEDKPSQTTHIVFVVHGIGQKMDQGRIIKNTAMMREAARKIEERHFSNHATHVEFLPVEWRSKLTLDGDTVDSITPDKVRGLRDMLNSSAMDIMYYTSPLYRDELVKGLQQELNRLYSLFCSRNPDFEEKGGKVSIVSHSLGCVITYDIMTGWNPVRLYEQLLQKEEELPDERWMSYEERHLLDELYITKRRLKEIEERLHGLKASSMTQTPALKFKVENFFCMGSPLAVFLALRGIRPGNTGSQDHILPREICNRLLNIFHPTDPVAYRLEPLILKHYSNISPVQIHWYNTSNPLPYEHMKPSFLNPAKEPTSVSENEGISTIPSPVTSPVLSRRHYGESITNIGKASILGAASIGKGLGGMLFSRFGRSSTTQSSETSKDSMEDEKKPVASPSATTVGTQTLPHSSSGFLDSAYFRLQESFFNLPQLLFPENVMQNKDNALVELDHRIDFELREGLVESRYWSAVTSHTAYWSSLDVALFLLTFMYKHEHDDDAKPNLDPI
For the molecule B4, the binding result in assay [1] was “binds”.
